Data taken from article doi:10.1101/120204.

Sequences of proteins named here, by UniProt entry; tags and fusion partners are left off. Residues count along the entry.
UniProt P11362, residues 22-822: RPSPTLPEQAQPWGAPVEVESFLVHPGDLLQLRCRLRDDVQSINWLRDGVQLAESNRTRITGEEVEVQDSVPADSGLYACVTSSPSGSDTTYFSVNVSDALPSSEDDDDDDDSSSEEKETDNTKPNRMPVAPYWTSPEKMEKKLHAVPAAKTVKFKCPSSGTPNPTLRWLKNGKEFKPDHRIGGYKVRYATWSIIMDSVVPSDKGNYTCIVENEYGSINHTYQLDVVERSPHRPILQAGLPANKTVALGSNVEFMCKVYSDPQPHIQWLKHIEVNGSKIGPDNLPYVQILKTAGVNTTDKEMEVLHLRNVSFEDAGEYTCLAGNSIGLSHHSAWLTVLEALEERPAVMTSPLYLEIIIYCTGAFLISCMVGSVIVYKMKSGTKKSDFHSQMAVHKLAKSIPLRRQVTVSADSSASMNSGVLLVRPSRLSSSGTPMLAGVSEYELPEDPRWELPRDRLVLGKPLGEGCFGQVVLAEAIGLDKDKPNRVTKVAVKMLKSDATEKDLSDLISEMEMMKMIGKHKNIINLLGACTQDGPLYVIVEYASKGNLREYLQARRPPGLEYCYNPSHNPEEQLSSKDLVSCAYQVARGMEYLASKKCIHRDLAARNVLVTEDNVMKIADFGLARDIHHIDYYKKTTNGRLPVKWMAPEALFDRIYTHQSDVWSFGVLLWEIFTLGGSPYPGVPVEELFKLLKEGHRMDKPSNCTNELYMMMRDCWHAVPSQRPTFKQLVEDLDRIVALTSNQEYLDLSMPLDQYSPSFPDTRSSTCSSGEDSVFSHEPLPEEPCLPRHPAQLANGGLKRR
UniProt P24864: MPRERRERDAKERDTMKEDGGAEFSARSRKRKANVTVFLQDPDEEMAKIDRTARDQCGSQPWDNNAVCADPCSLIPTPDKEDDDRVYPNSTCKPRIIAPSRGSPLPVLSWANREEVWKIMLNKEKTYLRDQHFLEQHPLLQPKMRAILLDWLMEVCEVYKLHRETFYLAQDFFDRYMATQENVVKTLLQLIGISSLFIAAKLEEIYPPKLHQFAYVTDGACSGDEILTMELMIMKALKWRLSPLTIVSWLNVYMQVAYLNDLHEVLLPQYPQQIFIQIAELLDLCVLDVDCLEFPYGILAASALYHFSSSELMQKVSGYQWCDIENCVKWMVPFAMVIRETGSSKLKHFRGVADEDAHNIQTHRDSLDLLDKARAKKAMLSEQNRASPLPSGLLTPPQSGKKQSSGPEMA
UniProt O95067: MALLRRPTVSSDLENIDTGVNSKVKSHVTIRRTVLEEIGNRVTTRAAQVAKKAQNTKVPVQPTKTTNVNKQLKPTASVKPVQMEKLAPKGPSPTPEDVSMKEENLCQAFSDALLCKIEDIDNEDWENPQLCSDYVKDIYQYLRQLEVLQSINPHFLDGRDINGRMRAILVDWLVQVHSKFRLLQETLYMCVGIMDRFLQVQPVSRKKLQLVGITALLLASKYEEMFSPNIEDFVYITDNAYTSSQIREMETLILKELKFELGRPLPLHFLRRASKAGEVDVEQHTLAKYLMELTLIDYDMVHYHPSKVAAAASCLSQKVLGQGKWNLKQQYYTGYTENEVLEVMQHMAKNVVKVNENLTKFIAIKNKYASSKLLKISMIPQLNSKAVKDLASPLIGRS

B1: SHC4 (protein, UniProt Q6S5L8 1-630)
chain: MRERGQDSLAGLVLYVGLFGHPGMLHRAKYSRFRNESITSLDEGSSGGSVGNKGSPQPPHPALAPHLPTEDATLPSQESPTPLCTLIPRMASMKLANPATLLSLKNFCLGTKEVPRLKLQESRDPGSSGPSSPETSLSRSGTAPPPQQDLVGHRATALTPDSCPLPGPGEPTLRSRQDRHFLQHLLGMGMNYCVRYMGCVEVLQSMRSLDFGMRTQVTREAISRLCEAVPGANGAIKKRKPPVKFLSTVLGKSNLQFSGMNIKLTISTCSLTLMNLDNQQIIANHHMQSISFASGGDPDTTDYVAYVAKDPVNQRACHILECHNGMAQDVISTIGQAFELRFKQYLKNPSLNTSCESEEVHIDSHAEEREDHEYYNEIPGKQPPVGGVSDMRIKVQATEQMAYCPIQCEKLCYLPGNSKCSSVYENCLEQSRAIGNVHPRGVQSQRDTSLLKHTCRVDLFDDPCYINTQALQSTPGSAGNQRSAQPLGSPWHCGKAPETVQPGATAQPASSHSLPHIKQQLWSEECYHGKLSRKAAESLLVKDGDFLVRESATSPGQYVLSGLQGGQAKHLLLVDPEGKVRTKDHVFDNVGHLIRYHMDNSLPIISSGSEVSLKQPVRKDNNPALLHSNK
B2: FGFR substrate 2 (FRS2) (protein, UniProt Q8WU20 1-508)
chain: MGSCCSCPDKDTVPDNHRNKFKVINVDDDGNELGSGIMELTDTELILYTRKRDSVKWHYLCLRRYGYDSNLFSFESGRRCQTGQGIFAFKCARAEELFNMLQEIMQNNSINVVEEPVVERNNHQTELEVPRTPRTPTTPGFAAQNLPNGYPRYPSFGDASSHPSSRHPSVGSARLPSVGEESTHPLLVAEEQVHTYVNTTGVQEERKNRTSVHVPLEARVSNAESSTPKEEPSSIEDRDPQILLEPEGVKFVLGPTPVQKQLMEKEKLEQLGRDQVSGSGANNTEWDTGYDSDERRDAPSVNKLVYENINGLSIPSASGVRRGRLTSTSTSDTQNINNSAQRRTALLNYENLPSLPPVWEARKLSRDEDDNLGPKTPSLNGYHNNLDPMHNYVNTENVTVPASAHKIEYSRRRDCTPTVFNFDIRRPSLEHRQLNYIQVDLEGGSDSDNPQTPKTPTTPLPQTPTRRTELYAVIDIERTAAMSNLQKALPRDDGTSRKTRHNSTDLPM

Experiments:
[1] = target: FGFR1 fused to BirA* (FGFR1-BirA*), with a C-terminal HA tag (human) (UniProt P11362); experiment: proximity labelling
[2] = target: FGFR1 fused to BirA* (FGFR1-BirA*), with a C-terminal HA tag (human) (UniProt P11362); experiment: proximity labelling; remark: listed apart in the source

| Molecule | binding [1] | binding [2] |
| --- | --- | --- |
| CCNE1 (from UniProt P24864 1-410) | binds | – |
| CCNB2 (from UniProt O95067 1-398) | binds | – |
| B1 | – | binds |
| B2 | – | binds |

Where two headings read alike, the source gives them in different places. No constants are given. Whether binding was seen depends on the method and setting. In cells and extracts the contact can be indirect. These calls come from enrichment with a bait or labelling near it, and not all partners need be listed.
